Experimental findings from article PMC11526107 are described below.

Results are given in words; binding and its absence hold for the method and conditions named. Binding seen in cells or lysates may run through a third protein. Some binding calls cover weakened binding; strength is not graded here.

This assay concerns the target T1, Stimulator of interferon genes (STING), endogenous in mouse peritoneal macrophages (mouse (endogenous in peritoneal macrophages)) (UniProt Q3TBT3).
T1 sequence: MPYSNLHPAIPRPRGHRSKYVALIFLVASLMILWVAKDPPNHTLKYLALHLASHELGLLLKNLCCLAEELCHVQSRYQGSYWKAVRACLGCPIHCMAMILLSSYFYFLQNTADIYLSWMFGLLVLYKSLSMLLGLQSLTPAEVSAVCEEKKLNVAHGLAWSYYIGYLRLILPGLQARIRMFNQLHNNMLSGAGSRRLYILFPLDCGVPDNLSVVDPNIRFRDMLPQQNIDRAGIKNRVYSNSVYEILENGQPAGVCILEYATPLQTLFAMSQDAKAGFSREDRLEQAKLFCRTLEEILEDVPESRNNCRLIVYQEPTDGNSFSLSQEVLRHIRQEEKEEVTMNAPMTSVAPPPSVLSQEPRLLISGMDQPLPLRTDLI
Nature of the assay: co-IP; endogenous proteins in mouse peritoneal macrophages, resting or stimulated with ISD or cGAMP; IP buffer 1.0% Nonidet P 40, 50 mM Tris-HCl pH 7.4, 50 mM EDTA, 150 mM NaCl; antibody with protein G Plus-Agarose overnight, five washes.

B1: ZAPL (ZC3HAV1 long isoform), endogenous in mouse peritoneal macrophages (protein, UniProt Q3UPF5 1-996)
chain: MTDPEVFCFITKILCAHGGRMTLEELLGEISLPEAQLYELLKAAGPDRFVLLETGDQAGITRSVVATTRARVCRRKYCQRPCDSLHLCKLNLLGRCHYAQSQRNLCKYSHDVLSEQNFQVLKNHELSGLNQEELAVLLVQSDPFFMPEICKSYKGEGRKQICGQPQPCERLHICEHFTRGNCSYLNCLRSHNLMDRKVLAIMREHGLSSDVVQNIQDICNNKHTRRNPPSMRAPHPHRRGGAHRDRSKSRDRFHHNSLEVLSTVSPLGSGPPSPDVTGCKDPLEDVSADVTQKFKYLGTQDRAQLSSVSSKAAGVRGPSQMRASQEFLEDGDPDGLFSRNRSDSSTSRTSAAGFPLVAAQRNEAGAMKMGMPSGHHVEVKGKNEDIDRVPFLNSYIDGVTMEEATVSGILGKRATDNGLEEMILSSNHQKSVAKTQDPQTAGRITDSGQDTAFLHSKYEENPAWPGTSTHNGPNGFSQIMDETPNVSKSSPTGFGIKSAVTGGKEAVYSGVQSLRSHVLAMPGETTTPVQGSNRLPPSPLSSSTSHRVAASGSPGKSSTHASVSPASEPSRMMMMMSDPAEYSLCYIVNPVSPRMDDHGLKEICLDHLYRGCQQVNCNKNHFHLPYRWQLFILPTWMDFQDMEYIERAYCDPQIEIIVIEKHRINFKKMTCDSYPIRRLSTPSFVEKTLNSVFTTKWLWYWRNELNEYTQYGHESPSHTSSEINSAYLESFFHSCPRGVLQFHAGSQNYELSFQGMIQTNIASKTQRHVVRRPVFVSSKDVEQKRRGPDHQPVMPQADALTLFSSPQRNASTVSSNEYEFIELNNQDEEYAKISEQFKASMKQFKIVTIKRIWNQKLWDTFERKKQKMKNKTEMFLFHAVGRIHMDYICKNNFEWILHGNREIRYGKGNYFTKEAMYSHKSCSYDSRGTVMFVARVLVGSVIEGNMTLSSPPALYDSCVDTRLNPSVFVIFRKEQIYPEYVIEYMELEKEKGCIIS
As for B1, the binding result is recorded as “binds”.
